Laboratory results as given in PubChem BioAssay AID2685 (National Center for Advancing Translational Sciences (NCATS), 2010).
This is one part of the list. These are further read-outs of the screen, such as a control signal, another cell line or another target. No call is given for them. Most of these compounds were active or inconclusive in the main read-out, so they are no random draw. Potencies come from curve fits of mixed quality, noted in brackets.

Test: qHTS Assay for Lipid Storage Modulators in Drosophila S3 Cells;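 as to cell number change: cells counted by Cell Tracker Red CMTPX staining in the red channel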
Conditions: BODIPY lipid droplet fluorescence, 18-24 h; for cell number change: measured here: cell count max response, cells fed with added oleic acid
In short: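 Laser-scanning cytometry quantifies lipid droplet accumulation (500–530 nm total intensity; droplet/cell object ratio) in oleic acid-fed (400 uM added) Drosophila S3 cells treated with a concentration series. 20 uM Triacsin C defined 100% inhibition.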

[1] = measured here: cell number channel AC50, cells fed with added oleic acid
[2] = measured here: lipid fluorescence (Fed channel) AC50, cells fed with added oleic acid

Row | Structure (SMILES) | cell number change | AC50 [1] | AC50 [2]
1 | Cc1ccc(C(=O)Nc2ccc(F)cc2)cc1NC1=NC2CS(=O)(=O)CC2S1 (stereo unspecified) | 9.28% |  | 
2 | Cc1ccc(N(C(C)C(=O)N2CCCC2)S(C)(=O)=O)cc1 (stereo unspecified) | 33.8% |  | 
3 | COc1ccc(/C=C/CN2CCN(Cc3cccc(OC)c3)C(CCO)C2)cc1 (stereo unspecified) | -7.73% | 2.31 µM [falling, single point] | 
4 | COc1ccc(NC(=O)C2CCCN(S(=O)(=O)c3cccnc3)C2)cc1 (stereo unspecified) | -12.9% |  | 0.82 µM [rising, partial curve]
5 | Cc1cc(Cl)cc2c(N=Nc3ccccc3C(=O)O)c(O)[nH]c12 | 12.9% |  | 
6 | O=C(C[n+]1cn(C(F)F)c2ccccc21)c1ccc(Br)cc1 | 65.5% | 32.6 µM [rising, partial curve] | 
7 | COC(=O)c1ccc(CNC(=O)C2CCC(=O)N(C3CCCCCC3)C2)cc1 (stereo unspecified) |  |  | 29.1 µM [rising, single point]
8 | Cc1cc(C(=O)N/N=C/c2cccs2)no1 | 28.2% | 0.00517 µM [rising, full curve, poor fit] | 0.00461 µM [rising, full curve, poor fit]
9 | CCc1ccc2nc(NC3=NCN(CCN4CCOCC4)CN3)nc(C)c2c1 | 9.39% |  | 
10 | Fc1ccccc1Nc1nc(Cl)nc(Cl)n1 |  |  | 1.46 µM [rising, full curve, poor fit]
11 | Cc1nn(C)c(C(=O)N/N=C/c2cccnc2)c1Cl | 1.17% |  | 
12 | COc1ccc(NC(=O)c2sc3nc(N4CCOCC4)c4c(c3c2N)CC(C(C)C)OC4)c(OC)c1 (stereo unspecified) | -3.36% |  | 
13 | Cc1cc(C)c[n+](C(C)C(=O)c2ccc(-c3ccccc3)cc2)c1 (stereo unspecified) | -29.4% |  | 29.1 µM [falling, single point]
14 | Cn1nc(C(=O)NCc2ccc(F)cc2)c2c1-c1ccccc1S(=O)(=O)C2 | -22.6% |  | 0.259 µM [falling, full curve, poor fit]
15 | O=C(NNC(=O)c1ccccc1F)c1cccc(-n2cccc2)c1 |  |  | 0.461 µM [falling, single point]
16 | O=C(/C=C/c1ccc(Cl)cc1Cl)N1CCc2ccccc21 |  | 0.366 µM [rising, partial curve, poor fit] | 0.326 µM [rising, full curve, poor fit]
17 | C[C@@H]1C=C(C(=O)N2CCN(Cc3ccccc3)CC2)O[C@H](OCc2ccc(CO)cc2)C1 | -1.13% |  | 
18 | COc1ccc(CNC(=O)CCn2nc(C)c3c(C)n(-c4ccccc4)nc3c2=O)c(OC)c1 |  | 0.231 µM [rising, full curve, poor fit] | 
19 | O=C(CSc1nnnn1-c1ccc(Cl)cc1)N1CCc2ccccc2C1 | -21.1% |  | 
20 | COc1ccc(-n2c(CN3CCN(c4ccccc4OC)CC3)nc3ccc([N+](=O)[O-])cc3c2=O)c(OC)c1 | -6.94% |  | 
21 | CC(C)[C@H](NC(=O)c1ccco1)C(=O)NC12CC3CC(CC(C3)C1)C2 | 68.3% | 29.1 µM [rising, single point] | 29.1 µM [rising, single point]
22 | COc1ccc(-n2c(Cc3cccn3C)nnc2SCC(=O)Nc2cccc(Cl)c2)cc1 | 18.9% | 0.082 µM [rising, full curve, poor fit] | 

Row | Structure (SMILES) | cell number change | AC50 [1] | AC50 [2]
23 | CCCOc1ccc(Br)cc1/C=N/NC(=O)c1cc(OC)c(OC)c(OC)c1 | 13.6% |  | 
24 | CCOc1ccc(C(=O)CCC(=O)Nc2ncccc2O)cc1 | 36.1% | 11.6 µM [rising, partial curve, poor fit] | 
25 | COC(=O)c1[nH]c2ccc(C)cc2c1NC(=O)CCN1CCN(C2CCCCC2)CC1 | -6.03% |  | 23.1 µM [falling, partial curve]
26 | COc1ccc(-c2nc(CS(=O)CC(=O)NC3CCCCC3)c(C)o2)cc1 (stereo unspecified) | -2.06% |  | 0.58 µM [falling, single point]
27 | Cc1nn(C(=O)c2cccc([N+](=O)[O-])c2)c(C)c1Br | -8.33% |  | 29.1 µM [falling, single point]
28 | COc1cc(NC(=O)C2CCN(S(=O)(=O)c3ccc4c(c3)CC(C)N4C(C)=O)CC2)cc(OC)c1OC (stereo unspecified) | 27.7% |  | 18.4 µM [rising, single point]
29 | CCN(C(=O)COC(=O)c1cc(-c2cccs2)nc2ccccc12)C1CCS(=O)(=O)C1 (stereo unspecified) | 20.3% |  | 
30 | COc1ccc(CN(C)C(=O)c2oc3ccccc3c2CSC)cc1F | 15.1% |  | 29.1 µM [falling, single point]
31 | C=CCn1c(SC(C)C(N)=O)nc2sc(CC)cc2c1=O (stereo unspecified) | 30.4% |  | 
32 | O=C(N/N=C/c1ccc[nH]1)c1cc(-c2ccc(Cl)cc2)nc2ccccc12 | 17% |  | 
33 | COc1ccc(CNc2oc(Cc3cccc4ccccc34)nc2C#N)cc1 | -15.1% | 6.51 µM [rising, single point] | 
34 | COc1ccc(CCNC(=O)/C=C/c2ccco2)cc1OC | -12.6% |  | 29.1 µM [falling, single point]
35 | O=C(N1CCCCC1)N1CCC(c2nc3ccccc3[nH]2)CC1 | -8.76% |  | 
36 | Cc1ccc(S(=O)(=O)N2CCOC2CNC(=O)C(=O)NCc2ccc3c(c2)OCO3)cc1 (stereo unspecified) | 26.6% |  | 18.4 µM [rising, partial curve]
37 | COc1cc(/C=N/Nc2nc(=O)[nH]nc2C)cc(OC)c1O | 19.5% |  | 4.61 µM [rising, single point]
38 | Cc1ccc(S(=O)(=O)Nc2ccc(-c3csc(-c4ccccc4)n3)cc2)cc1 | -50.9% | 16.4 µM [falling, single point] | 2.06 µM [falling, partial curve]
39 | CCOC(=O)C1CCN(C(=O)C(C)Oc2ccc(Br)cc2)CC1 (stereo unspecified) | -26.1% |  | 16.4 µM [rising, partial curve]
40 | CCc1c(C)nc(N2CCOCC2)[nH]c1=O |  | 4.61 µM [falling, partial curve] | 4.61 µM [falling, partial curve]
41 | COc1nc(Nc2ccc(C(C)=O)cc2)nc(OC)n1 |  |  | 0.58 µM [rising, single point]
42 | CNCCCCOc1ccc(C(C)(C)C)cc1Cl | -20.8% |  | 
43 | COC(=O)[C@@]1(Cc2ccc(OC)cc2)[C@H]2c3cc(C(=O)N4CCCC4)n(CCN4CCNC4=O)c3C[C@H]2CN1C(=O)c1ccccc1 | 17.5% |  | 20.6 µM [rising, single point]
44 | COCC(C)n1c(SCc2ccc(C(=O)OC)cc2)nc2ccccc2c1=O (stereo unspecified) | -6.31% |  | 0.58 µM [rising, single point]

Row | Structure (SMILES) | cell number change | AC50 [1] | AC50 [2]
45 | Cc1ccc(C)c(CSCC(=O)NCc2cccs2)c1 | 1.46% | 0.0259 µM [rising, full curve, poor fit] | 0.058 µM [rising, full curve, poor fit]
46 | O=c1c2ccccc2[nH]c(=S)n1Cc1ccc2c(c1)OCO2 | -33.1% | 25.9 µM [falling, single point] | 25.9 µM [falling, partial curve]
47 | CC(C)Cn1c(N)c(C(=O)COC(=O)c2ccc3ccccc3n2)c(=O)n(C)c1=O | -11.2% |  | 
48 | CCNc1ccc(Br)cc(C(=O)/C=C/c2ccc3c(c2)OCO3)c1=O | 6.21% |  | 0.58 µM [rising, partial curve, poor fit]
49 | Cc1cc(=O)oc2cc(NC(=O)c3cc4ccccc4o3)ccc12 | 11.1% |  | 6.51 µM [rising, partial curve, poor fit]
50 | CC1(c2ccc(Cl)cc2)NC(=O)N(CN2CCOCC2)C1=O (stereo unspecified) | 14.5% |  | 29.1 µM [rising, single point]
51 | CCCCCSc1nnc2c(n1)OC(C)N(C(C)=O)c1ccccc1-2 (stereo unspecified) | 30.6% | 20.6 µM [rising, single point] | 1.03 µM [rising, full curve, poor fit]
52 | Cc1cccc(-n2c(SCC(=O)NCc3ccc4c(c3)OCO4)nc3ccccc3c2=O)c1 | 37.3% | 0.731 µM [rising, full curve] | 0.92 µM [rising, full curve]
53 | CCOC(=O)COc1ccc(Br)cc1/C=C1\SC(N)=NC1=O |  |  | 6.51 µM [falling, partial curve]
54 | COc1ccccc1OCCCOc1c(Cl)cc(C)cc1Cl | 4.89% | 6.51 µM [rising, single point] | 16.4 µM [rising, partial curve]
55 | COC(=O)C(NC(=O)CNS(=O)(=O)c1ccc(Br)cc1)c1ccccc1 (stereo unspecified) | 44.2% |  | 2.31 µM [rising, full curve]
56 | O=C(N/C=C/c1ccccc1)c1ccccc1 | 0.858% |  | 0.092 µM [falling, full curve, poor fit]
57 | O=S(=O)(CCSc1ccccn1)c1nc2ccccc2s1 |  | 6.51 µM [falling, single point] | 
58 | Cc1ccc(Nc2nc(CSc3nnc(-c4ccc(F)cc4)n3C)cs2)cc1 | 38% | 4.11 µM [rising, full curve, poor fit] | 5.8 µM [rising, full curve]
59 | CC1CCCN(C(=O)C2CCN(CC3CC=CCC3)CC2)C1 (stereo unspecified) | -4.39% |  | 29.1 µM [rising, single point]
60 | CCCn1c(C)cs/c1=N\C(=S)Nc1ccccc1 | 2.97% |  | 0.651 µM [rising, partial curve, poor fit]
61 | O=C(CSc1nnc(-c2ccco2)o1)NCC(=O)c1ccccc1 | -10% |  | 20.6 µM [rising, single point]
62 | Cc1ccc(-c2cc(C(=O)N/N=C/c3ccc(Cl)cc3)n[nH]2)o1 | 2.38% |  | 
63 | CC1=NN(C(=O)c2csc(C)c2)C(O)(C(F)(F)F)C1 (stereo unspecified) | -8.38% |  | 
64 | CCOc1ccc(NC(=O)c2ccc(N3CC4CC(C3)c3cccc(=O)n3C4)c(NC(=O)c3ccncc3)c2)cc1 (stereo unspecified) | 22.6% |  | 

Reformatted: four of the compounds above.
CCNc1ccc(Br)cc(C(=O)/C=C/c2ccc3c(c2)OCO3)c1=O
  cell number change: 6.21%; AC50 [2]: 0.58 µM [rising, partial curve, poor fit]
Cc1cc(=O)oc2cc(NC(=O)c3cc4ccccc4o3)ccc12
  cell number change: 11.1%; AC50 [2]: 6.51 µM [rising, partial curve, poor fit]
CC1(c2ccc(Cl)cc2)NC(=O)N(CN2CCOCC2)C1=O (stereo unspecified)
  cell number change: 14.5%; AC50 [2]: 29.1 µM [rising, single point]
CCCCCSc1nnc2c(n1)OC(C)N(C(C)=O)c1ccccc1-2 (stereo unspecified)
  cell number change: 30.6%; AC50 [1]: 20.6 µM [rising, single point]; AC50 [2]: 1.03 µM [rising, full curve, poor fit]
